Test results reported in doi:10.1101/2020.06.16.156083.
These are yes or no findings as the source states them, for the method shown. In cells and extracts the contact can be indirect. Some results given as binding are weak or reduced against the parent protein; the word gives no strength.

By UniProt entry, the sequences of proteins in these tests, tags left out.
UniProt Q60722: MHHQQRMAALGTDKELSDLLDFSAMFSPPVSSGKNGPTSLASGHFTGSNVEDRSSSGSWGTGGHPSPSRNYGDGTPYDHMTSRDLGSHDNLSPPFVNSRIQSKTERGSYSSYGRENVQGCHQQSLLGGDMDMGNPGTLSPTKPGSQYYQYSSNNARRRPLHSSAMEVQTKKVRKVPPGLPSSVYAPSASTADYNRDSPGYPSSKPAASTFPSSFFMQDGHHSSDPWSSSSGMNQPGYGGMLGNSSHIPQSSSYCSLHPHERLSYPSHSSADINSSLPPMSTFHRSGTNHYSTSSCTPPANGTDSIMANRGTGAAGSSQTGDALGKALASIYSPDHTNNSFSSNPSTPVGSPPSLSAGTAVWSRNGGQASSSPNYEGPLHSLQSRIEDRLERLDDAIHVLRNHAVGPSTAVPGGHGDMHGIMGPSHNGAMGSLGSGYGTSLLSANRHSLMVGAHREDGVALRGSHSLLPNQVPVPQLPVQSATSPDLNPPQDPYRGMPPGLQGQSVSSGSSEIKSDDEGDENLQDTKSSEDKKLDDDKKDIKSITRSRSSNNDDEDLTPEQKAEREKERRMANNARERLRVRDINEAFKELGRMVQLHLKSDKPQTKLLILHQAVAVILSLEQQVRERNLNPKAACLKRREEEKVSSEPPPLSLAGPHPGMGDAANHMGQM
UniProt Q7M6Y2: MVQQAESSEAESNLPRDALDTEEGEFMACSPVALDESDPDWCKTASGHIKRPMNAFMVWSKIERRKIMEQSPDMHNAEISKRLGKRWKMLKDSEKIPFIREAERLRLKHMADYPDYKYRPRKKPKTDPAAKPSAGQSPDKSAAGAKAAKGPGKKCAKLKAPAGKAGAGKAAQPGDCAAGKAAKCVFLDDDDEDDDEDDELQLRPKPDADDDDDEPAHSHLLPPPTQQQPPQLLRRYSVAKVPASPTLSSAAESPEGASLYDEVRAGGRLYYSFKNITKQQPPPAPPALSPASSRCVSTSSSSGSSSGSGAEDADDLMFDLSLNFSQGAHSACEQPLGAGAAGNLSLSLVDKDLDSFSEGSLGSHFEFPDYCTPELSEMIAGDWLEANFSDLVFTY
UniProt P39880: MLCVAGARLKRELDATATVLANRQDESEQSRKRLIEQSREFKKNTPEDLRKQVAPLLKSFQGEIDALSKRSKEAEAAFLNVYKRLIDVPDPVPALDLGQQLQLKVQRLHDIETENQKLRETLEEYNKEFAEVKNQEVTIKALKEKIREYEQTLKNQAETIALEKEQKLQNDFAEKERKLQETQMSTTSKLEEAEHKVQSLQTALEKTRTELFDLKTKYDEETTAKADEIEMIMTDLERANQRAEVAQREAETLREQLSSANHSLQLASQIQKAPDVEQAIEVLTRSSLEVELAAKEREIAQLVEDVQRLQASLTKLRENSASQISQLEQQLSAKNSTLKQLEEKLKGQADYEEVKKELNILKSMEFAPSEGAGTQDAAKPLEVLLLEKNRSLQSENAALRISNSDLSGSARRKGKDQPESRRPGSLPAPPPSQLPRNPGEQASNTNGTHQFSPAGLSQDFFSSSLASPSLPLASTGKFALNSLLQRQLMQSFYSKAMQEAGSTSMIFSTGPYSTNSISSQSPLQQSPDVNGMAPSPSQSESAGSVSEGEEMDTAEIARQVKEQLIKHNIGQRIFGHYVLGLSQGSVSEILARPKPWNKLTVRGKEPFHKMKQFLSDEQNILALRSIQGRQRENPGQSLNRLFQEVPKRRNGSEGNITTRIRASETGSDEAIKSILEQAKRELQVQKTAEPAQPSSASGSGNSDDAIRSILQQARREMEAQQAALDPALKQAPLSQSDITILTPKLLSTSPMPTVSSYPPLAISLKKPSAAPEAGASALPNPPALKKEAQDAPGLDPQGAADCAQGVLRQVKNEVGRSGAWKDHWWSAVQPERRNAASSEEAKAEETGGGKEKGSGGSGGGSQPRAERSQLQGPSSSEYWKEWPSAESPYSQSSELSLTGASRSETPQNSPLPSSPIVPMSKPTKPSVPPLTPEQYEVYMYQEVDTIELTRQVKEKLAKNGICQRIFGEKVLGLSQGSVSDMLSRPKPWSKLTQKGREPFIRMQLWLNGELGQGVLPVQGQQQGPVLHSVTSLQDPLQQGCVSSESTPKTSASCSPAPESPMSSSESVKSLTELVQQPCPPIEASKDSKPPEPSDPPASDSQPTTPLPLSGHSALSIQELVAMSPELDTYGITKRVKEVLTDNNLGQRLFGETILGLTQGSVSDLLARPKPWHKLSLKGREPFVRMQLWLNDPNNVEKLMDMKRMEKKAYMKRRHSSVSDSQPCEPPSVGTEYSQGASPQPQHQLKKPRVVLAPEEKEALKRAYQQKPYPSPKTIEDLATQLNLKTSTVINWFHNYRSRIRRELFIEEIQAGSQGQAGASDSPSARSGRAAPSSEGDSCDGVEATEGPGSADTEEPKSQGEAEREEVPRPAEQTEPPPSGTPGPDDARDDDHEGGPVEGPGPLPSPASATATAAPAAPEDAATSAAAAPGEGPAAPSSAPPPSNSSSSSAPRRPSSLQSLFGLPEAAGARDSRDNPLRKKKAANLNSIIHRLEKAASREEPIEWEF
UniProt P51532: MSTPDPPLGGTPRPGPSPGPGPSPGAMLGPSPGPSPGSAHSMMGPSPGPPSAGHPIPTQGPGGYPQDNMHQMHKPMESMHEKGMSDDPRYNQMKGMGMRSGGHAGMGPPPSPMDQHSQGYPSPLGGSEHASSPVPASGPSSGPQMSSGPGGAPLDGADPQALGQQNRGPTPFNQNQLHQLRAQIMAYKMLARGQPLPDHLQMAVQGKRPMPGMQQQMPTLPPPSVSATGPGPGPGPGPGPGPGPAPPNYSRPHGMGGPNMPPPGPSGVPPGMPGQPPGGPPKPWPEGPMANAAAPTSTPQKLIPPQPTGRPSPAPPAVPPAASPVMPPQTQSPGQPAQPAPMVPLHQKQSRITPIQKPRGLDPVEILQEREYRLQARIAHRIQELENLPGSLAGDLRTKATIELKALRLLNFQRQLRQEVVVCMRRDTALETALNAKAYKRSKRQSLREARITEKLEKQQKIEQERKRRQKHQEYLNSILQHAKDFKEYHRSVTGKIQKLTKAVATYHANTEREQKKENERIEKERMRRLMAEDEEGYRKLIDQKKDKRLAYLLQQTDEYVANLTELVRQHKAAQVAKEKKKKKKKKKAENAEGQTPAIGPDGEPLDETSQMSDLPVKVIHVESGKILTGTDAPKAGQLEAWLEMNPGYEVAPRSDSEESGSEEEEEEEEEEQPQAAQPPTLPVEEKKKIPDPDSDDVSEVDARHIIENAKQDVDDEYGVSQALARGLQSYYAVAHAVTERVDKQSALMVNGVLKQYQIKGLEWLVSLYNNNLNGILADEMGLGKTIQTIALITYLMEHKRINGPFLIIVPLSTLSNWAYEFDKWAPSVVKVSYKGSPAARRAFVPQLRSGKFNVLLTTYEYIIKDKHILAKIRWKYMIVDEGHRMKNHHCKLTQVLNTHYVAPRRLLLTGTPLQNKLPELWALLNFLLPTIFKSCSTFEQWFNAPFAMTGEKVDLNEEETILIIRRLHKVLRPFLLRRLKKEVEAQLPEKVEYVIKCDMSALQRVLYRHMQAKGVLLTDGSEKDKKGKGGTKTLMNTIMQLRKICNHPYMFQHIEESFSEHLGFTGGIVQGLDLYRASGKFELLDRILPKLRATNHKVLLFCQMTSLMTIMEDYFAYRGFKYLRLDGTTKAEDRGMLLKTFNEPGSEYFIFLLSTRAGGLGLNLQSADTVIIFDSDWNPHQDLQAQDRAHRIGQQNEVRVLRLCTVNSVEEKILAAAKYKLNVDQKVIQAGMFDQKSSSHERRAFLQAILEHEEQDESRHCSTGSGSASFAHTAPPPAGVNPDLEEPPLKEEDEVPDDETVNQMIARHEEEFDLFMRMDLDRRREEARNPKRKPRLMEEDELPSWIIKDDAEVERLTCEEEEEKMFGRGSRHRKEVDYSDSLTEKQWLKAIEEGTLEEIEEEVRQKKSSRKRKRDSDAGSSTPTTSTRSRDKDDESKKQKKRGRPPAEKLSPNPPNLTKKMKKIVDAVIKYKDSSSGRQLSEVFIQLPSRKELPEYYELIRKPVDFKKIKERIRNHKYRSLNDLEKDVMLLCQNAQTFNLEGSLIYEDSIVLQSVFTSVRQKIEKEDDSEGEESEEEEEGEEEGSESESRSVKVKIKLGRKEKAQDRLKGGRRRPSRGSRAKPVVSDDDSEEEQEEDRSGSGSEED
UniProt Q60987: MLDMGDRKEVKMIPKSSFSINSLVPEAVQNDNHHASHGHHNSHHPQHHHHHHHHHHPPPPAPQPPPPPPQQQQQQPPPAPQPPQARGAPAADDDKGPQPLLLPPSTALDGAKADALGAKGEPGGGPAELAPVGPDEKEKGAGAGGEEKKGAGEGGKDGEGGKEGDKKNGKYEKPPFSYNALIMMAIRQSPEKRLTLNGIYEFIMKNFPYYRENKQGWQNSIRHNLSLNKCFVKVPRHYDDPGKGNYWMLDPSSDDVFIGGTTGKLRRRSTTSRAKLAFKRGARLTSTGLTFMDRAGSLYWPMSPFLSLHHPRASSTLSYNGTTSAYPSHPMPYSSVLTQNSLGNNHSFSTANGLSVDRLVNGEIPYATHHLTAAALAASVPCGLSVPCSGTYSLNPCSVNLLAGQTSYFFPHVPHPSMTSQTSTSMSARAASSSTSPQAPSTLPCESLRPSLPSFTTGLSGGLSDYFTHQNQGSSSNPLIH

B1: POU3F3 (BRN1), overexpressed from pCMV5 rBrn1 (protein, UniProt Q63262 1-497)
chain: MATAASNPYLPGNSLLAAGSIVHSDAAGAGGGGGGGGGGGGGAGGGGGGMQPGSAAVTSGAYRGDPSSVKMVQSDFMQGAMAASNGGHMLSHAHQWVTALPHAAAAAAAAAAAAVEASSPWSGSAVGMAGSPQQPPRPPPPPPQGPDVKGGVGREDLHAGTALHHRGPPHLGPPPPPPHQGHPGGWGAAAAAAAAAAAAAAAAHLPSMAGGQQPPPQSLLYSQPGGFTVNGMLSAPPGPGGGGGGAGGGAQSLVHPGLVRGDTPELAEHHHHHHHHAHPHPPHPHHAQGPPHHGGGGAGPGLNSHDPHSDEDTPTSDDLEQFAKQFKQRRIKLGFTQADVGLALGTLYGNVFSQTTICRFEALQLSFKNMCKLKPLLNKWLEEADSSTGSPTSIDKIAAQGRKRKKRTSIEVSVKGALESHFLKCPKPSAQEITNLADSLQLEKEVVRVWFCNRRQKEKRMTPPGIQQQTPDDVYSQVGTVSADTPPPHHGLQTSVQ

The molecules below were run against TCF-4 (transcription factor 4), long isoform, overexpressed from CAG-TCF-4-IRES-GFP (UniProt Q60722) (assay: co-IP).

With “SOX11, overexpressed from CAG-Sox11-IRES-GFP (from UniProt Q7M6Y2 1-395)” as the molecule, how does the binding read?
Its binding is “binds”.

“CUX1 (p200 CUX1), Myc-tagged, overexpressed from pXJ42-p200 CUX1 (from UniProt P39880 1-1505)” was tested. Which binding did it give?
Its binding is “binds”.

“SMARCA4 (BRG1), overexpressed from pBJ5-hBRG1 (from UniProt P51532 1-1647)” was tested. Which binding did it give?
The binding was “binds”.

“FOXG1, overexpressed from CAG-Foxg1-IRES-RFP (from UniProt Q60987 1-481)” was tested. Which binding did it give?
Its binding is “binds”.

For B1, which binding is on record?
Its binding is “binds”.
